Data from paper PMC6851102.
No constants are given. Whether binding was seen depends on the method and setting. In cells and extracts the contact can be indirect. Some entries that bind do so weakly or less than the wild type. For some assays here: Sequences can lack the tags named with a protein.

Amino acid sequences for entries named in this document (tags omitted).
UniProt Q13330: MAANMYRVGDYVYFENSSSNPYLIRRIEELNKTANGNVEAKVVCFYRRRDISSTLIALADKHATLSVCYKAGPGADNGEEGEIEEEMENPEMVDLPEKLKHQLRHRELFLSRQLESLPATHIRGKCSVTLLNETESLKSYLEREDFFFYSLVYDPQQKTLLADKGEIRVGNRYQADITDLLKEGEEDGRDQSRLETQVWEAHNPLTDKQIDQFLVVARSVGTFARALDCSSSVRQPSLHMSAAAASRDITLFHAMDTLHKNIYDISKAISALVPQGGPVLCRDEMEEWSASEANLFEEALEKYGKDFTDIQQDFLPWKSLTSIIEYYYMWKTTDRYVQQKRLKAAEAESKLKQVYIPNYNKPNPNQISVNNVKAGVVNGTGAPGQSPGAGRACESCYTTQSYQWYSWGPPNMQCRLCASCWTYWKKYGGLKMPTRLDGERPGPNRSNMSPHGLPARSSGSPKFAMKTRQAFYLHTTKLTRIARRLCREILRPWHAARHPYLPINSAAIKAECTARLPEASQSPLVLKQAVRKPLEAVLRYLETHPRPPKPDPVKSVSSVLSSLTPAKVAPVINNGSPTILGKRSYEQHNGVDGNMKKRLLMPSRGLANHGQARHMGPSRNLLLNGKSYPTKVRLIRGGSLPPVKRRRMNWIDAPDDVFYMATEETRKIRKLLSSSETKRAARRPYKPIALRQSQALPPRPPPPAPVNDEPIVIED
UniProt Q9R190: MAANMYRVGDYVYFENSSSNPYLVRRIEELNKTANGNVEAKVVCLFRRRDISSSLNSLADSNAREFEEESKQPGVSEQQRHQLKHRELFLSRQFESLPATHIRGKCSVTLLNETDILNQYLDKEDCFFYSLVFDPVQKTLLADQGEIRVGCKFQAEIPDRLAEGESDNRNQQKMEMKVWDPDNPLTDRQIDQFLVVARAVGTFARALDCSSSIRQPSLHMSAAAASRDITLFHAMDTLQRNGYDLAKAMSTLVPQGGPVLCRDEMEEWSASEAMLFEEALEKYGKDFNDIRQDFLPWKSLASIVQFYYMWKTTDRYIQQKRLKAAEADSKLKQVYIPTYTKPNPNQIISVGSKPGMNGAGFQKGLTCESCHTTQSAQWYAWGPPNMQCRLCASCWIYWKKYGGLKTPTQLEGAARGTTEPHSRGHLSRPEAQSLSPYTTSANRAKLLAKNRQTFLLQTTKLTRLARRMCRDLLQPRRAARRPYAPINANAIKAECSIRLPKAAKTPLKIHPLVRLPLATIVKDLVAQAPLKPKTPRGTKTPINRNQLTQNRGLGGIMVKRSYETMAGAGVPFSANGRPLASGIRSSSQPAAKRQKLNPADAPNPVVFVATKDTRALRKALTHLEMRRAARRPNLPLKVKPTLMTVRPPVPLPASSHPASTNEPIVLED
UniProt Q924K8: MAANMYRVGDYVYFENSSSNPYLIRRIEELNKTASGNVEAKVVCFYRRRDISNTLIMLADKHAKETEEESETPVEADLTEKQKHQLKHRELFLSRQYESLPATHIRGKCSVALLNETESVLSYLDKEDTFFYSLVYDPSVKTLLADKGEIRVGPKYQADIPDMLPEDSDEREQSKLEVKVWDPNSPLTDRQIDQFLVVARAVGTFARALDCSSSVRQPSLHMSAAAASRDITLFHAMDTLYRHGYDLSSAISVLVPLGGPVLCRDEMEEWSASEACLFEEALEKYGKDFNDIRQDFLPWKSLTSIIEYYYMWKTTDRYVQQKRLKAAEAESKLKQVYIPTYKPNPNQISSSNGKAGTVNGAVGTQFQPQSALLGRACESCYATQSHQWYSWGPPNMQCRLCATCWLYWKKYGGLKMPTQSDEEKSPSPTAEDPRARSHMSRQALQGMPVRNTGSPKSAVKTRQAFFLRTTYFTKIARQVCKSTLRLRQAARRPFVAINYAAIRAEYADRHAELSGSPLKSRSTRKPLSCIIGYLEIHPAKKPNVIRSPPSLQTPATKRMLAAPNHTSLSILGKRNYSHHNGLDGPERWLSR

Tests used:
[1] = target: T1, ZEB1, endogenous in murine NSCLC cell lines (mouse (endogenous in 344SQ and 531LN2)) (UniProt Q64318); assay: proximity ligation; endogenous proteins in fixed, permeabilised H157, H1299, 344SQ and 531LN2 cells; primary antibodies to ZEB1 and a NuRD member; Duolink In Situ Red Starter Mouse/Rabbit kit; confocal microscopy
T1 sequence: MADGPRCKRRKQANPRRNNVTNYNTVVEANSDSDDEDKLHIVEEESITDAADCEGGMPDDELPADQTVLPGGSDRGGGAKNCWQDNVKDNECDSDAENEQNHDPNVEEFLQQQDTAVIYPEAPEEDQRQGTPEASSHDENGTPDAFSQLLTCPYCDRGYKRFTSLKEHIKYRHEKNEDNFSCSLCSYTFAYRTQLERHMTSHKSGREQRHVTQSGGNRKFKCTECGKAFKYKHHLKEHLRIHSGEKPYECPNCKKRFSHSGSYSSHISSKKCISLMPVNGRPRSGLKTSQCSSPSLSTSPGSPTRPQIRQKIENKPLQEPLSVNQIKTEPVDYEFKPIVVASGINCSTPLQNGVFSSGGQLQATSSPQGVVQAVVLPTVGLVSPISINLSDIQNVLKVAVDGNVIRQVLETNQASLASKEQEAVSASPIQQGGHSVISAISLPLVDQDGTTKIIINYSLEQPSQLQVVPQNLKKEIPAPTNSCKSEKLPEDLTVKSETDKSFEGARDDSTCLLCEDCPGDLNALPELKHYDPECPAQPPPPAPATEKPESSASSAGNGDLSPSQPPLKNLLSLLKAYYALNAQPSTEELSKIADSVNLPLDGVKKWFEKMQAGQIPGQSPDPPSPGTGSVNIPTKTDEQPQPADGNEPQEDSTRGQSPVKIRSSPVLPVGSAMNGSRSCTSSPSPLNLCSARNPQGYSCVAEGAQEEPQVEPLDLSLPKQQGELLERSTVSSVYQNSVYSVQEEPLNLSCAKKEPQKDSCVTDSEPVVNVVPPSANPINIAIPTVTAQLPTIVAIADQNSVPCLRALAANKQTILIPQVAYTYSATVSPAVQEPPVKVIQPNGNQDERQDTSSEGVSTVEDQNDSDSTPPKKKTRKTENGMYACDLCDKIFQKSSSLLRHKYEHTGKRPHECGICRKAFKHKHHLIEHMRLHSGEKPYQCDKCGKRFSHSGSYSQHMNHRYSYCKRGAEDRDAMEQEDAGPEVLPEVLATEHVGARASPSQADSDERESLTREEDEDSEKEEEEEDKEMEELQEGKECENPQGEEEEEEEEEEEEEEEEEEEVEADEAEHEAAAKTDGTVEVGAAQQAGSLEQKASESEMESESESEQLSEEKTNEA

[2] = target: MTA1, human, endogenous (human (endogenous in HEK293 Flp-In, H157 and H1299)) (UniProt Q13330); assay: co-IP; HEK293 Flp-In cells expressing FlagBirA*-ZEB1; 500 ug crude lysate with primary antibody overnight at 4 °C, Protein A/G PLUS-Agarose, washes with PBS and 50 mM Tris pH 7.4, 150 mM NaCl, 0.1% NP-40; Western blot
[3] = target: T2, TBC1D2b in the murine NSCLC cell lines 344SQ and 531LN2 (murine) (UniProt Q3U0J8); assay: co-IP; 344SQ and 531LN2 murine cell lysates; 500 ug crude lysate with primary antibody overnight at 4 °C, Protein A/G PLUS-Agarose; Western blot
T2 sequence: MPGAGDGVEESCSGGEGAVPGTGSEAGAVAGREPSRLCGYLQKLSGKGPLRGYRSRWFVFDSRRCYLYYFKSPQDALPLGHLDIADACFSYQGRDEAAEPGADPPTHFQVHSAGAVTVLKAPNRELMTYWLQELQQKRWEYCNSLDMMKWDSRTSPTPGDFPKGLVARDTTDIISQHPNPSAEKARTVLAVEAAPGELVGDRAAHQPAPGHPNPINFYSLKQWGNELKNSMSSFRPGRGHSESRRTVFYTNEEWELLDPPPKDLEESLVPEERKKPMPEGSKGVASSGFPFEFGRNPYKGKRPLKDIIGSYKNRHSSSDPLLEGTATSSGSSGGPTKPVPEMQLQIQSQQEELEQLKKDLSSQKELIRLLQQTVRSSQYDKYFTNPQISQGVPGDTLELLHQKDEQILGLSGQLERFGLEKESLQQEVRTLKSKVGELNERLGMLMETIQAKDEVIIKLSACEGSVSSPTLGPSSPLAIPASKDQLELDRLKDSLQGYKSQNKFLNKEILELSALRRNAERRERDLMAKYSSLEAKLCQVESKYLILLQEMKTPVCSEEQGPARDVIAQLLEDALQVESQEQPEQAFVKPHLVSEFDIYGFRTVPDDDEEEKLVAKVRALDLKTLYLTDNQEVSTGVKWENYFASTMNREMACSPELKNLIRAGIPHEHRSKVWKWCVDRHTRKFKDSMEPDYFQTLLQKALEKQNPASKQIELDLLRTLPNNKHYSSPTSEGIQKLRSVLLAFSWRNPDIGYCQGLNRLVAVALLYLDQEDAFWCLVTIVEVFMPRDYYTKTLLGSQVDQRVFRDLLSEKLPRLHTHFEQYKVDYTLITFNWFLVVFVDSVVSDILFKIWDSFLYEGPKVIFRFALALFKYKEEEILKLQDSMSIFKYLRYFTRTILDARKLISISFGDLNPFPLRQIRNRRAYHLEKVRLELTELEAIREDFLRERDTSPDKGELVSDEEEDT

“MTA2, murine, endogenous (from UniProt Q9R190 1-668)” was tested, and the binding [1] was “binds”.

With “MTA3, murine, endogenous (from UniProt Q924K8 1-591)” the binding [1] was “binds”.

B1: FlagBirA*-ZEB1 (human ZEB1 with an N-terminal FlagBirA* tag) (protein, UniProt P37275 1-1124)
chain: MADGPRCKRRKQANPRRNNVTNYNTVVETNSDSDDEDKLHIVEEESVTDAADCEGVPEDDLPTDQTVLPGRSSEREGNAKNCWEDDRKEGQEILGPEAQADEAGCTVKDDECESDAENEQNHDPNVEEFLQQQDTAVIFPEAPEEDQRQGTPEASGHDENGTPDAFSQLLTCPYCDRGYKRFTSLKEHIKYRHEKNEDNFSCSLCSYTFAYRTQLERHMTSHKSGRDQRHVTQSGCNRKFKCTECGKAFKYKHHLKEHLRIHSGEKPYECPNCKKRFSHSGSYSSHISSKKCISLIPVNGRPRTGLKTSQCSSPSLSASPGSPTRPQIRQKIENKPLQEQLSVNQIKTEPVDYEFKPIVVASGINCSTPLQNGVFTGGGPLQATSSPQGMVQAVVLPTVGLVSPISINLSDIQNVLKVAVDGNVIRQVLENNQANLASKEQETINASPIQQGGHSVISAISLPLVDQDGTTKIIINYSLEQPSQLQVVPQNLKKENPVATNSCKSEKLPEDLTVKSEKDKSFEGGVNDSTCLLCDDCPGDINALPELKHYDLKQPTQPPPLPAAEAEKPESSVSSATGDGNLSPSQPPLKNLLSLLKAYYALNAQPSAEELSKIADSVNLPLDVVKKWFEKMQAGQISVQSSEPSSPEPGKVNIPAKNNDQPQSANANEPQDSTVNLQSPLKMTNSPVLPVGSTTNGSRSSTPSPSPLNLSSSRNTQGYLYTAEGAQEEPQVEPLDLSLPKQQGELLERSTITSVYQNSVYSVQEEPLNLSCAKKEPQKDSCVTDSEPVVNVIPPSANPINIAIPTVTAQLPTIVAIADQNSVPCLRALAANKQTILIPQVAYTYSTTVSPAVQEPPLKVIQPNGNQDERQDTSSEGVSNVEDQNDSDSTPPKKKMRKTENGMYACDLCDKIFQKSSSLLRHKYEHTGKRPHECGICKKAFKHKHHLIEHMRLHSGEKPYQCDKCGKRFSHSGSYSQHMNHRYSYCKREAEERDSTEQEEAGPEILSNEHVGARASPSQGDSDERESLTREEDEDSEKEEEEEDKEMEELQEEKECEKPQGDEEEEEEEEEVEEEEVEEAENEGEEAKTEGLMKDDRAESQASSLGQKVGESSEQVSEEKTNEA
B1 was tested, and the binding [2] was “binds”.

B2: Rab22, murine, endogenous (protein, UniProt P35285 1-194)
chain: MALRELKVCLLGDTGVGKSSIVWRFVEDSFDPNINPTIGASFMTKTVQYQNELHKFLIWDTAGQERFRALAPMYYRGSAAAIIVYDITKEETFSTLKNWVRELRQHGPPSIVVAIAGNKCDLTDVREVMERDAKDYADSIHAIFVETSAKNAININELFIEISRRIPSTDANPASGGKGFKLRRQPSEPKRSCC
For B2, the binding [3] was “binds”.

B3: Rab31, murine, endogenous (protein, UniProt Q921E2 1-195)
chain: MMAIRELKVCLLGDTGVGKSSIVCRFVQDHFDHNISPTIGASFMTKTVPCGNELHKFLIWDTAGQERFHSLAPMYYRGSAAAVIVYDITKQDSFHTLKKWVKELKEHGPENIVMAIAGNKCDLSDIREVPLKDAKEYAESIGAIVVETSAKNAINIEELFQGISRQIPPLGPQENGNSGGIKLGNQSLQASRRCC
For B3, the binding [3] was “no binding”.
